The campaign covered roughly 52,000 sequences. About 210 (0.4%) were called active.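 The calls were made as follows: active = gene whose silencing raises cell survival under the drug, median off-target-corrected z-score across its silencing RNAs 2 or more; inactive = the rest.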 This is one part of the list.

This assay is described as follows: Resistance to Poly (ADP-Ribose) Polymerase inhibitor: Gene Identification via Genome-wide siRNA Screen. Particulars: mouse BRCA2 R2336H ES cells, olaparib, CellTiter-Glo viability; stronger effect = higher value. The essentials:
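Genome-wide siRNA screen (3 siRNAs/gene, 20 nM) in mouse ES cells carrying hypomorphic BRCA2 R2336H; olaparib 500 nM added 48 h post-transfection, CellTiter-Glo viability 72 h later. Normalized to plate-median negative control; MAD z-scores, gene median, seed-adjusted.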
(In general: ATP-based viability assays read luminescence as a measure of living cells.)
For the sequence GGAGUUUUUACAGAAAAUGTT against Scin, the z-score is inactive: 0.226.
To CCAUUAGCUCCAUUCUUUCTT against Atp6v0d2 belongs inactive: -0.0501; to GGUUCAGAUCCAUCACUCGTT against Rab39b, inactive: -0.486; to “GGUGUCAAAUAGCUGAAACTT against 6330412F12Rik”, inactive: 0.121.
To “GCCAUCAGAAUUCGAUACATT against 2900092C05Rik” belongs inactive: 0.74.
As for CCAGUUAUCUAUCUAGUGUTT against Sash1, the z-score was inactive: 0.47.
As for GCUUGUGGAUUUUUAGUGATT against Dufd1, the figure is inactive: 0.261; as for GGAUGAACUCCAGAACAUCTT against Gmfg, inactive: 0.405; as for GGAUAACUUGCCAAAGUCUTT against Alas1, inactive: -0.207.
Turning to “GGGAAAAGGUCAGUGAAGUTT against 2310046O06Rik”, the z-score was inactive: -0.456.
As for GGCAAGUCCUAGUUUUGUUTT against Dfy, the figure is inactive: 0.508; as for GGCAUUGUCCUACAUGAGCTT against Astl, inactive: 0.983.
As for GGAACAUCGUGACUUUAUATT against Kist, the figure is inactive: 1.36; as for GGUGAGAACUUAAUCUUGGTT against Tax1bp3, inactive: 0.147.
As for “GGUGUCCUAUGAUUACAGCTT against A830059I20Rik”, the figure is inactive: -1.62; as for GGUUUUCUUCUUCAUAGCUTT against Olfr125, inactive: 1.54.
Regarding CCUUUGUGUAUUCAAGGAGTT against AI194308, the z-score is inactive: -0.237.
To “GGAUCUGAAUGACUUUGUGTT against 5730467H21Rik” belongs inactive: 0.632; to “GCUACUAAUUGAUUAGUUGTT against 4930478A21Rik”, inactive: 0.259; to “GGAAAGAGGGAAACUAAUUTT against D10Bwg1364e”, inactive: 0.0946.
As for CCACUAUAGUCCUUAGUGUTT against Ugt2b5, the figure is inactive: -0.31; as for CCGACGAUUCCUGAAGCUATT against Tada3l, inactive: -1.29; as for GCUAAGACUCUUGAAUCAGTT against Suhw4, inactive: 1.07.
To GGGAAAUCAUCUUCUAUAATT against Pde6c belongs inactive: 0.744.
As for GCAAAAGACGAGUGAGCCUTT against Hoxa9, the z-score is inactive: 1.3.
To CGGGCUGUUCAGAAAUCGATT against Trmt1 belongs inactive: 0.313; to GGAACAUUCUCGACUUCCCTT against Thop1, inactive: -0.0863; to GCACUGGAAGGCCAAUUAGTT against BC022692, inactive: -0.00984.
As for CCUGUGGAUUACGGCCUCATT against Ube3b, the figure is inactive: 0.122.

Source of the values: PubChem BioAssay AID1347423 (Functional Genomics Laboratory (NCATS/FGL), 2020).
